From the supplement of paper PMC10849652
The list shows a part of the results.

The chains behind the UniProt entries cited, without tags or fusion partners. Where a name states a change or a piece, a line headed by the entry shows the natural chain unless it says otherwise.
UniProt Q5VST6: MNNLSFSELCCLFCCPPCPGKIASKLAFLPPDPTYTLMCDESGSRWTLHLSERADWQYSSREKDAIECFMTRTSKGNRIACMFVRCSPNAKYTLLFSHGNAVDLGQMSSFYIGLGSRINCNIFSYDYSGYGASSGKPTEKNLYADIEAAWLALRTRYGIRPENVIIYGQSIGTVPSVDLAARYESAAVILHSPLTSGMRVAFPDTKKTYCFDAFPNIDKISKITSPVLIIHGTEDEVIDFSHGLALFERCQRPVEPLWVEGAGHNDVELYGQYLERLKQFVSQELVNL
UniProt Q8N2K0: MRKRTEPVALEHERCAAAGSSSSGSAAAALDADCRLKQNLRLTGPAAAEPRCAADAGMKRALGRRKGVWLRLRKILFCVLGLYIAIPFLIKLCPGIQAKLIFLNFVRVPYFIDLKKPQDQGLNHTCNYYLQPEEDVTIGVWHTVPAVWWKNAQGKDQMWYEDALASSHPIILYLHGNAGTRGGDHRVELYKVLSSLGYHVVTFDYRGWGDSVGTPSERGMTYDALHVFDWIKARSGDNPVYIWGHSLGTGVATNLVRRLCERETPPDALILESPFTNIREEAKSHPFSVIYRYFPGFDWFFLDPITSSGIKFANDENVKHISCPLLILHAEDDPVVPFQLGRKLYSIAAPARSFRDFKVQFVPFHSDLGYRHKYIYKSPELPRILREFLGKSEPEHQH
UniProt P49588, whole entry, looked up: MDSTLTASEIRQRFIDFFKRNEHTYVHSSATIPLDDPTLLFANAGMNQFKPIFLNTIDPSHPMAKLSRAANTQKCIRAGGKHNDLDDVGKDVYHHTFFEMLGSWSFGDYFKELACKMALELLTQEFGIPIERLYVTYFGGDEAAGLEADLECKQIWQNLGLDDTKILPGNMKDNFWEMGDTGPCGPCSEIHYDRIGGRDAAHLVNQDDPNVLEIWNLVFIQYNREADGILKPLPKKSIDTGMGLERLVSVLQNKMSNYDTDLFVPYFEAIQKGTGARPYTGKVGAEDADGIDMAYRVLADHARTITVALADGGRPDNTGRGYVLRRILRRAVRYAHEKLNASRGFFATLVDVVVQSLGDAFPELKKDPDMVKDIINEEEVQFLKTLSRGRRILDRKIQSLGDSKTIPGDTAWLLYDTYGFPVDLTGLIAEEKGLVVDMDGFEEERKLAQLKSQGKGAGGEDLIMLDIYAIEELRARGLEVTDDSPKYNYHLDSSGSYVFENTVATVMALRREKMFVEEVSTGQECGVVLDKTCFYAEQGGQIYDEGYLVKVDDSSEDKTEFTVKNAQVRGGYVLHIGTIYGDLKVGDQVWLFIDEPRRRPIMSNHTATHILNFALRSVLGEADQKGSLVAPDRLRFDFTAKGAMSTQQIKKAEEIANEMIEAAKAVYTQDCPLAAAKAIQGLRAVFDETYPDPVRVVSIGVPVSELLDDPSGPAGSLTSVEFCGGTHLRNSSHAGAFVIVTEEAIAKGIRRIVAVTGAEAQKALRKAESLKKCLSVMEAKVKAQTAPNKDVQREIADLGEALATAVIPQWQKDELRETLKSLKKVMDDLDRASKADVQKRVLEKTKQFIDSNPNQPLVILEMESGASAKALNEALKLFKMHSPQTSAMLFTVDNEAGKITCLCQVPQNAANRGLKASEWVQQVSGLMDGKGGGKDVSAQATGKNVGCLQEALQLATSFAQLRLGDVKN
UniProt Q96GS6: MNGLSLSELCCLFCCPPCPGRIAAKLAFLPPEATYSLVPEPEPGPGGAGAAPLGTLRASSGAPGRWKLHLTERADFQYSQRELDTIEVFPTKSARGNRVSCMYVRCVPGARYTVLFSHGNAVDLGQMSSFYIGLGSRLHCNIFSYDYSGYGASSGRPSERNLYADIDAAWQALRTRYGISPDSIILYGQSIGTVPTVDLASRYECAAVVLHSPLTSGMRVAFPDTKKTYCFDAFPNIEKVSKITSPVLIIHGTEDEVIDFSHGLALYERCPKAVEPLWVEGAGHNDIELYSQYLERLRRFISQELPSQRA
UniProt Q13685: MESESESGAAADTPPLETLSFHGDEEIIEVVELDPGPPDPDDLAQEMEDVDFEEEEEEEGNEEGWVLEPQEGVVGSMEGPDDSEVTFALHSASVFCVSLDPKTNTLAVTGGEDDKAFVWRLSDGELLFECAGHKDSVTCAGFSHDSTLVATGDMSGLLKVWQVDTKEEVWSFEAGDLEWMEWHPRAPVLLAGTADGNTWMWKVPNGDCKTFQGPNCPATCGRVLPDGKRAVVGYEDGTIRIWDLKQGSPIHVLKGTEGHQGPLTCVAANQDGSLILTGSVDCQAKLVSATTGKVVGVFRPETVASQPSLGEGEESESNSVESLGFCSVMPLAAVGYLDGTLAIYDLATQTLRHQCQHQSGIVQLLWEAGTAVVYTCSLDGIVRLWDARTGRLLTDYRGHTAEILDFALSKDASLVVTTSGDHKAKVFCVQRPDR
UniProt Q9NRG9: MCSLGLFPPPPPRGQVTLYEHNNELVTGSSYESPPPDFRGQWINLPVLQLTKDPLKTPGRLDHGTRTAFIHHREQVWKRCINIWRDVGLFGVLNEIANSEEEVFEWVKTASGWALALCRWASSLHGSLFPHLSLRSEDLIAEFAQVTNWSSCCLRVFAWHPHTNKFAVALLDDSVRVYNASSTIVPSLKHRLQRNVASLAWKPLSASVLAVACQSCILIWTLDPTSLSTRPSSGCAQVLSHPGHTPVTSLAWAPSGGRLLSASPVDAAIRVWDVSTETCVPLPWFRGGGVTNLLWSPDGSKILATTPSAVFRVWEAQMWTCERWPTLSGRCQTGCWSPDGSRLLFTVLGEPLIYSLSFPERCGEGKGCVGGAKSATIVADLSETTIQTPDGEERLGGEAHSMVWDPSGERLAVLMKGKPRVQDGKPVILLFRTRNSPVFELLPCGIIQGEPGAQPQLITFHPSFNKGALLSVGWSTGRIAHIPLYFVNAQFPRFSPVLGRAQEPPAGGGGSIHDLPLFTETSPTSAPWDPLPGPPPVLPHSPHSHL
UniProt P09110: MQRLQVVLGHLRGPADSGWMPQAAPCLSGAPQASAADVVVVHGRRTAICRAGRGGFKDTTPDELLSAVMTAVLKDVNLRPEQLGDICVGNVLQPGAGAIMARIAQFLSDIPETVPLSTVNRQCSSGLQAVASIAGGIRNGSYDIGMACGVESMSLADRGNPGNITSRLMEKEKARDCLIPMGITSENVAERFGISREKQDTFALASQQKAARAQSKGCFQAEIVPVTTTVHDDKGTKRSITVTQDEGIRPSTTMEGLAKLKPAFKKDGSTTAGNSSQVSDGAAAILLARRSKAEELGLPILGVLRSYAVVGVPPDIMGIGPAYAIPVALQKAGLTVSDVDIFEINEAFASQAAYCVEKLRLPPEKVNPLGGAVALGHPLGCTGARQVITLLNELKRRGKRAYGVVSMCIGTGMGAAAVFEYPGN
UniProt O00763, whole entry, looked up: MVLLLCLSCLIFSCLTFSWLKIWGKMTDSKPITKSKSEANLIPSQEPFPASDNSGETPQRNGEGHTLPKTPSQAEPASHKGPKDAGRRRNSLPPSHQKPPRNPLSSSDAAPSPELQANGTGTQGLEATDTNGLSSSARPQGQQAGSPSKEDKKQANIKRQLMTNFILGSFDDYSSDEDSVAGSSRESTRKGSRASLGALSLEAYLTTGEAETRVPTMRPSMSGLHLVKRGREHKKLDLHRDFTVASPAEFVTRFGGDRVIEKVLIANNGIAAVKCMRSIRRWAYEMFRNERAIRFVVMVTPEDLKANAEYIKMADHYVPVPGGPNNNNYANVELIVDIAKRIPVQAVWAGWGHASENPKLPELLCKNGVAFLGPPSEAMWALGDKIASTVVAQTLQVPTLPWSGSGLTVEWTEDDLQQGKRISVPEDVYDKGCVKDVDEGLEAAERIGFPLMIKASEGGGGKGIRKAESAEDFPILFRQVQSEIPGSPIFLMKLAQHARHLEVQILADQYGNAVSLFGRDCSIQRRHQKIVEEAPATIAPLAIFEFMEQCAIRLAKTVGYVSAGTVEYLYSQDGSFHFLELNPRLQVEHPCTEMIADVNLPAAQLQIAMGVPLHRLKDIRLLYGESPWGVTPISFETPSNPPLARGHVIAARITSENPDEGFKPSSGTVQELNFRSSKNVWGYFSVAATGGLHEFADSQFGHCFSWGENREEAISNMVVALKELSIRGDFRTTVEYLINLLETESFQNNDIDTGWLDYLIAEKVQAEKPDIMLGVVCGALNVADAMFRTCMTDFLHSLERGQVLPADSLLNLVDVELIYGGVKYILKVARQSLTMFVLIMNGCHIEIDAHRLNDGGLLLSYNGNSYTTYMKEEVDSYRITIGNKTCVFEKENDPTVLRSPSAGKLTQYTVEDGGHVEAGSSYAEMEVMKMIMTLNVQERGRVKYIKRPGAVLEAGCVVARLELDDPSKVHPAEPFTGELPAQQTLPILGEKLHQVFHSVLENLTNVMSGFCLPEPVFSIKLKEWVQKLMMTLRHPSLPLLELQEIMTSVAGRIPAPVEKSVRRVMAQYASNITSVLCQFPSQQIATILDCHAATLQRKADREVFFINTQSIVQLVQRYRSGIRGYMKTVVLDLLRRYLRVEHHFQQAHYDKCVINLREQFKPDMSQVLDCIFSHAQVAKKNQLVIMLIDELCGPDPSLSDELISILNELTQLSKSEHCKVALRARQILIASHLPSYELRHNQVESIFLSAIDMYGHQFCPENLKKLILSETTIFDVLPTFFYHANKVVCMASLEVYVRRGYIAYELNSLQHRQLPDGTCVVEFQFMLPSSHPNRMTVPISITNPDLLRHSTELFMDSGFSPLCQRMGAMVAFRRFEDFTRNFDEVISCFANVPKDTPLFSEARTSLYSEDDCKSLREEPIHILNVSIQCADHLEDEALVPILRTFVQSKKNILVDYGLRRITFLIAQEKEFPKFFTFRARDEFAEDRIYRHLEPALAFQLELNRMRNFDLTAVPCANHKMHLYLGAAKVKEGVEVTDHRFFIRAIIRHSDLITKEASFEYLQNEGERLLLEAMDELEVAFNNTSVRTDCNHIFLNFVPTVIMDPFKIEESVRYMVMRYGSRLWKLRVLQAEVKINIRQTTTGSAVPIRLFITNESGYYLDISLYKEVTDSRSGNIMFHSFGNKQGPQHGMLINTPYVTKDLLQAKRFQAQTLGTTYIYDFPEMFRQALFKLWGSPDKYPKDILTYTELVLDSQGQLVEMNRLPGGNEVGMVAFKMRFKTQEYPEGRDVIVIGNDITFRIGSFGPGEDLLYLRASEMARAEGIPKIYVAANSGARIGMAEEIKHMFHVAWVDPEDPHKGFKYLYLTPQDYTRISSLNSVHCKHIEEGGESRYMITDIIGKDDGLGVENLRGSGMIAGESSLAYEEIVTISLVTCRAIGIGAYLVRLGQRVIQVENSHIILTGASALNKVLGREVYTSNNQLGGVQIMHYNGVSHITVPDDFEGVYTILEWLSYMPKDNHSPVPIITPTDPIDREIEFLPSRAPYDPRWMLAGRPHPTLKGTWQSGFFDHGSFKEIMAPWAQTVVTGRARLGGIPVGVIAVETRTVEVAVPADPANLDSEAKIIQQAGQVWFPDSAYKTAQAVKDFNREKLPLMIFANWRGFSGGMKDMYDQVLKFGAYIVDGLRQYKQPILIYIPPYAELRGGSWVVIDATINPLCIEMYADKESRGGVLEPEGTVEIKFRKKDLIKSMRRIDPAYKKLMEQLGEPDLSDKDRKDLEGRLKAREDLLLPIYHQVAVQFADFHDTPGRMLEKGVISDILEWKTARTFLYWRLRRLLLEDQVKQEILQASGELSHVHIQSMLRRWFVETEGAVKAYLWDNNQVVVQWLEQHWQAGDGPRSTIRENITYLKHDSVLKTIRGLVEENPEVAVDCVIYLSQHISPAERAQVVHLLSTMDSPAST
UniProt Q8WTS1: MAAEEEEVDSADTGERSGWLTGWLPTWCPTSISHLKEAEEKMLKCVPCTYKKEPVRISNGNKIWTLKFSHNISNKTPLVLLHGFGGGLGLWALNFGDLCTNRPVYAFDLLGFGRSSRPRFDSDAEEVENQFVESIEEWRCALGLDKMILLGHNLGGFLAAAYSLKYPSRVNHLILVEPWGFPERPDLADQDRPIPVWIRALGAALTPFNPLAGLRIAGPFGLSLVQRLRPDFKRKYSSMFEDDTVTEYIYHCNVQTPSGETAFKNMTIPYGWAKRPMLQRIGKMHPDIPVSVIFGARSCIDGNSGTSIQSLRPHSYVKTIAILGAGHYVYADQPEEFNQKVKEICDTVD
UniProt Q9NX38: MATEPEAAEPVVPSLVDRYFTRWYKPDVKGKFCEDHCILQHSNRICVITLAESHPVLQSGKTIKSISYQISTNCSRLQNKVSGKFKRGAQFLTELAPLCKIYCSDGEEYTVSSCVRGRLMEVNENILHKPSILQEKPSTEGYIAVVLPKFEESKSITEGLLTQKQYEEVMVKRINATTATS

Legend:
Test in all cases: log2 fold change, soluble protein after heating vs DMSO (PISA); higher = thermal stabilisation; K562 lysate, 10 uM; active = over 0.2 and 3.5 SD of the protein, either way, in both replicates (recomputed)
[1] = compound: CCCS(=O)(=O)Nc1ccc(F)c(C(=O)c2c[nH]c3ncc(-c4ccc(Cl)cc4)cc23)c1F [vemurafenib]
Method in brief: (§1)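 To prepare the extract, K562 pellets were dounce-homogenised in PBS pH 7.4 with 1 mM MgCl2, giving crude material at 1 mg/mL protein. This was treated with 10 μM compound for 30 min, then heated in aliquots for 3 min over 48°C-58°C before pooling and addition of NP-40 to 0.5% at 4°C. Centrifugation at 21,000xg for 90 min left soluble protein in the supernatant, which TMTpro 16plex LC-MS/MS quantified with equalised channel sums. Results are log-two fold changes in thermal stability compared with solvent controls, from duplicates.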

[2] = compound: CCCS(=O)(=O)Nc1ccc(F)c(C(=O)c2c[nH]c3ncc(Cl)cc23)c1F
Method in brief: as §1

[3] = compound: CCN(CCCOc1ccc2c(Nc3cc(CC(=O)Nc4cccc(F)c4)[nH]n3)ncnc2c1)CCOP(=O)(O)O [barasertib]
Method in brief: as §1

[4] = compound: CC[C@@H]1C(=O)N(C)c2cnc(Nc3ccc(C(=O)NC4CCN(C)CC4)cc3OC)nc2N1C1CCCC1
Method in brief: as §1

[5] = compound: CC[C@@H]1C(=O)N(C)c2cnc(Nc3ccc(C(=O)N[C@H]4CC[C@H](N5CCN(CC6CC6)CC5)CC4)cc3OC)nc2N1C(C)C [volasertib]
Method in brief: as §1

[6] = compound: CCn1c(C(=O)N(C2CC2)C2CC2)cc2c3c(ncn3C)c(Nc3cc(C)n(C)n3)nc21
Method in brief: as §1

[7] = compound: CCn1cc(-c2ccnc3[nH]c(-c4cccc(CN(C)C)c4)cc23)c(-c2ccc(NC(=O)N(C)C)cc2)n1
Method in brief: as §1

[8] = compound: CN1CCC(CNc2ccc3ncc(-c4cccc(OC(F)(F)F)c4)n3n2)CC1
Method in brief: as §1

[9] = compound: CN1CCN(CCOc2cc(OC3CCOCC3)c3c(Nc4c(Cl)ccc5c4OCO5)ncnc3c2)CC1 [saracatinib]
Method in brief: as §1

[10] = compound: CN1CCN(c2nc(C3=C(c4c[nH]c5ccccc45)C(=O)NC3=O)c3ccccc3n2)CC1 [sotrastaurin]
Method in brief: as §1

[11] = compound: CN1CC[C@H](c2c(O)cc(O)c3c(=O)cc(-c4ccccc4Cl)oc23)[C@H](O)C1 [alvocidib]
Method in brief: as §1

[12] = compound: CN1CCc2c(c3ccccc3n2Cc2ccc(C(=O)NO)cc2)C1 [Tubastatin A]
Method in brief: as §1

[13] = compound: CNC(=O)C1=CC=CC=C1NC2=NC(=NC=C2Cl)NC3=C(C=C(C=C3)N4CCOCC4)OC
Method in brief: as §1

[14] = compound: CNC(=O)c1ccc(Nc2ncc(C(F)(F)F)c(NCc3nccnc3N(C)S(C)(=O)=O)n2)cc1 [defactinib]
Method in brief: as §1

[15] = compound: CNc1nc(-c2ccc3c(N)n[nH]c3c2)cc(N2C[C@@H](C(=O)NC3CCCCC3)CC[C@H]2C)n1
Method in brief: as §1

[16] = compound: COC(=O)N[C@@H](C)CNc1nccc(-c2cn(C(C)C)nc2-c2cc(Cl)cc(NS(C)(=O)=O)c2F)n1 [encorafenib]
Method in brief: as §1

[17] = compound: COC(=O)[C@H](CCSC)NC(=O)C1=C(C=C(C=C1)NC[C@H](CS)N)C2=CC=CC=C2
Method in brief: as §1

[18] = compound: COc1cc(Nc2ncc3c(n2)-c2ccc(Cl)cc2C(c2c(F)cccc2OC)=NC3)ccc1C(=O)O [alisertib]
Method in brief: as §1

[19] = compound: COc1cc2nc(-c3cc(F)ccc3O)nc(N[C@@H]3CNC[C@H]3C(C)(C)O)c2cc1OC
Method in brief: as §1

[20] = compound: COc1cc2ncnc(Nc3ccc(F)c(Cl)c3)c2cc1OCCCN1CCOCC1 [gefitinib]
Method in brief: as §1

Target	log2 fold change [1]	log2 fold change [2]	log2 fold change [3]	log2 fold change [4]	log2 fold change [5]	log2 fold change [6]	log2 fold change [7]	log2 fold change [8]	log2 fold change [9]	log2 fold change [10]	log2 fold change [11]	log2 fold change [12]	log2 fold change [13]	log2 fold change [14]	log2 fold change [15]	log2 fold change [16]	log2 fold change [17]	log2 fold change [18]	log2 fold change [19]	log2 fold change [20]
ABHD17B (UniProt Q5VST6)	inactive: 0.051	inactive: -0.002	inactive: -0.073	inactive: 0.234	inactive: 0.094	inactive: -0.034	inactive: 0.08	inactive: 0.054	inactive: 0.092	inactive: -0.002	inactive: 0	inactive: -0.016	inactive: -0.003	inactive: 0.064	inactive: -0.099	inactive: 0.059	active: -0.642	inactive: 0.06	inactive: -0.011	inactive: 0.043
ABHD12 isoform 2 (UniProt Q8N2K0)	inactive: -0.049	inactive: 0.077	inactive: -0.015	inactive: 0.034	inactive: 0.006	inactive: -0.055	inactive: 0.119	inactive: -0.111	inactive: -0.039	inactive: 0.018	inactive: 0.02	inactive: 0.001	inactive: 0.039	inactive: -0.004	inactive: 0.003	inactive: 0.046	inactive: -0.018	inactive: -0.031	inactive: -0.03	inactive: -0.045
ACAP2 (UniProt Q15057)	inactive: 0.031	inactive: 0.001	inactive: 0.005	inactive: -0.021	inactive: -0.017	inactive: 0.019	inactive: 0.021	inactive: -0.041	inactive: 0.027	inactive: -0.017	inactive: 0.013	inactive: -0.023	inactive: 0.001	inactive: -0.016	inactive: -0.019	inactive: -0.007	inactive: 0.101	inactive: 0.005	inactive: 0.01	inactive: -0.013
AARS (UniProt P49588)	inactive: -0.007	inactive: -0.009	inactive: -0.03	inactive: -0.044	inactive: -0.03	inactive: 0.025	inactive: 0.019	inactive: -0.002	inactive: -0.007	inactive: 0.003	inactive: 0	inactive: -0.011	inactive: -0.016	inactive: -0.011	inactive: -0.024	inactive: -0.031	inactive: 0.023	inactive: 0.01	inactive: -0.009	inactive: -0.018
ABHD17A isoform 2 (UniProt Q96GS6)	inactive: -0.007	inactive: -0.08	inactive: 0.007	inactive: 0.036	inactive: 0.012	inactive: 0.022	inactive: 0.001	inactive: 0.013	inactive: -0.027	inactive: -0.05	inactive: -0.025	inactive: 0.023	inactive: -0.025	inactive: -0.009	inactive: 0.01	inactive: -0.009	inactive: -0.222	inactive: -0.12	inactive: 0.04	inactive: 0.044
A2M (UniProt P01023)	inactive: 0.059	inactive: 0.063	inactive: -0.032	inactive: 0.041	inactive: -0.008	inactive: -0.06	inactive: -0.042	inactive: 0.038	inactive: 0.006	inactive: -0.074	inactive: -0.051	inactive: 0.01	inactive: 0.036	inactive: 0.003	inactive: -0.056	inactive: -0.024	inactive: -0.066	inactive: -0.021	inactive: -0.003	inactive: -0.019
AAMP (UniProt Q13685)	inactive: -0.001	inactive: 0.026	inactive: 0.006	inactive: 0.002	inactive: -0.002	inactive: -0.012	inactive: 0.074	inactive: -0.022	inactive: -0.038	inactive: -0.038	inactive: 0.012	inactive: 0.045	inactive: -0.009	inactive: -0.041	inactive: 0.019	inactive: -0.008	inactive: -0.022	inactive: -0.019	inactive: 0.01	inactive: -0.021
AAAS (UniProt Q9NRG9)	inactive: 0.038	inactive: 0.06	inactive: 0.023	inactive: 0.034	inactive: -0.001	inactive: 0.008	inactive: -0.007	inactive: -0.053	inactive: 0.019	inactive: -0.038	inactive: 0.009	inactive: -0.064	inactive: -0.014	inactive: -0.001	inactive: 0.028	inactive: 0.028	inactive: -0.197	inactive: 0.041	inactive: -0.028	inactive: -0.038
ACAA1 (UniProt P09110)	inactive: 0.034	inactive: 0.033	inactive: -0.027	inactive: 0.006	inactive: 0.036	inactive: 0.001	inactive: -0.049	inactive: 0.039	inactive: 0.002	inactive: -0.004	inactive: -0.027	inactive: 0.043	inactive: 0.008	inactive: 0.008	inactive: 0.093	inactive: -0.021	inactive: 0.012	inactive: -0.035	inactive: 0.01	inactive: 0.015
ACACB (UniProt O00763)	inactive: 0.012	inactive: 0.028	inactive: 0.024	inactive: -0.113	inactive: -0.11	inactive: 0.038	inactive: -0.14	inactive: 0.027	inactive: 0.018	inactive: 0.037	inactive: -0.04	inactive: -0.153	inactive: 0.007	inactive: 0.019	inactive: -0.043	inactive: 0.127	inactive: -0.156	inactive: 0.016	inactive: 0.006	inactive: 0.006
ABHD5 (UniProt Q8WTS1)	inactive: 0.083	inactive: 0.021	inactive: -0.015	inactive: 0.069	inactive: -0.031	inactive: -0.045	inactive: 0	inactive: -0.217	inactive: -0.062	inactive: 0.008	inactive: 0.066	inactive: -0.014	inactive: -0.014	inactive: -0.044	inactive: -0.12	inactive: -0.067	inactive: -0.046	inactive: 0.006	inactive: 0.079	inactive: 0.013
ABHD16A (UniProt O95870)	inactive: 0.074	inactive: 0.012	inactive: 0.026	inactive: 0.141	inactive: 0.002	inactive: -0.059	inactive: -0.001	inactive: 0.019	inactive: 0.021	inactive: 0.051	inactive: 0.036	inactive: 0.066	inactive: -0.077	inactive: 0.009	inactive: 0.054	inactive: -0.074	active: 0.245	inactive: -0.029	inactive: -0.004	inactive: -0.021
ABITRAM (UniProt Q9NX38)	inactive: 0.105	inactive: 0.035	inactive: -0.011	inactive: -0.039	inactive: 0.008	inactive: -0.068	inactive: -0.15	inactive: 0.073	inactive: -0.001	inactive: 0.062	inactive: -0.01	inactive: -0.005	inactive: -0.018	inactive: 0.047	inactive: -0.008	inactive: 0.006	inactive: -0.059	inactive: -0.048	inactive: -0.127	inactive: 0.006
AAK1 (UniProt Q2M2I8)	inactive: 0.015	inactive: -0.087	inactive: -0.004	inactive: 0.049	inactive: 0.061	inactive: -0.005	inactive: -0.068	inactive: 0.407	inactive: 0.029	inactive: 0.033	inactive: 0.063	inactive: 0.049	inactive: 0.454	inactive: 0.116	inactive: 0.308	inactive: -0.149	inactive: -0.081	inactive: -0.046	inactive: -0.047	inactive: 0.039
ABCE1 (UniProt P61221)	inactive: -0.013	inactive: -0.001	inactive: -0.001	inactive: -0.038	inactive: 0.008	inactive: -0.02	inactive: -0.001	inactive: 0.024	inactive: -0.011	inactive: -0.006	inactive: 0.005	inactive: 0.059	inactive: 0.132	inactive: 0.007	inactive: -0.036	inactive: -0.03	inactive: -0.069	inactive: -0.019	inactive: -0.002	inactive: -0.028
ABI1 isoform 9 (UniProt Q8IZP0)	inactive: -0.021	inactive: 0.005	inactive: -0.01	inactive: 0.052	inactive: -0.038	inactive: -0.001	inactive: -0.116	inactive: 0.217	inactive: -0.029	inactive: -0.019	inactive: -0.096	inactive: 0.053	inactive: 0.005	inactive: -0.038	inactive: 0.025	inactive: 0.003	inactive: -0.057	inactive: -0.02	inactive: 0.018	inactive: -0.015

Reformatted: results already given
Target | log2 fold change [1] | log2 fold change [2] | log2 fold change [3] | log2 fold change [4] | log2 fold change [5] | log2 fold change [6] | log2 fold change [7] | log2 fold change [8] | log2 fold change [9] | log2 fold change [10] | log2 fold change [11] | log2 fold change [12] | log2 fold change [13] | log2 fold change [14] | log2 fold change [15] | log2 fold change [16] | log2 fold change [17] | log2 fold change [18] | log2 fold change [19] | log2 fold change [20]
ABHD17B (UniProt Q5VST6) | inactive: 0.051 | inactive: -0.002 | inactive: -0.073 | inactive: 0.234 | inactive: 0.094 | inactive: -0.034 | inactive: 0.08 | inactive: 0.054 | inactive: 0.092 | inactive: -0.002 | inactive: 0 | inactive: -0.016 | inactive: -0.003 | inactive: 0.064 | inactive: -0.099 | inactive: 0.059 | active: -0.642 | inactive: 0.06 | inactive: -0.011 | inactive: 0.043
AAK1 (UniProt Q2M2I8) | inactive: 0.015 | inactive: -0.087 | inactive: -0.004 | inactive: 0.049 | inactive: 0.061 | inactive: -0.005 | inactive: -0.068 | inactive: 0.407 | inactive: 0.029 | inactive: 0.033 | inactive: 0.063 | inactive: 0.049 | inactive: 0.454 | inactive: 0.116 | inactive: 0.308 | inactive: -0.149 | inactive: -0.081 | inactive: -0.046 | inactive: -0.047 | inactive: 0.039
